These are yes or no findings as the source states them, for the method shown. Some results given as binding are weak or reduced against the parent protein; the word gives no strength.
How the values were obtained:
[1] = target: murine CD28 on cells (CD28-positive murine T cell line EL4; BALB/c mouse splenic T cells) (mouse) (UniProt P31041); assay: flow cytometry competition on EL4 cells (legend of FIG. 19)
[2] = target: murine CD28 on cells (CD28-positive murine T cell line EL4; BALB/c mouse splenic T cells) (mouse) (UniProt P31041); assay: flow cytometry reverse competition on EL4 cells, 25-fold excess PV1 against PV1-IgG3
[3] = target: murine CD28 on cells (CD28-positive murine T cell line EL4; BALB/c mouse splenic T cells) (mouse) (UniProt P31041); assay: flow cytometry on EL4 cells, 1 µg/ml; the filing says PV1 binds CD28 and also binds nonspecifically to other sites
[4] = target: murine CD28 on cells (CD28-positive murine T cell line EL4; BALB/c mouse splenic T cells) (mouse) (UniProt P31041); assay: flow cytometry competition on EL4 cells, 25-fold excess against R-PE-PV1

Chains of the proteins cited; added tags and fusions are not shown. Residues count along the entry.
UniProt P31041, residues 20-218: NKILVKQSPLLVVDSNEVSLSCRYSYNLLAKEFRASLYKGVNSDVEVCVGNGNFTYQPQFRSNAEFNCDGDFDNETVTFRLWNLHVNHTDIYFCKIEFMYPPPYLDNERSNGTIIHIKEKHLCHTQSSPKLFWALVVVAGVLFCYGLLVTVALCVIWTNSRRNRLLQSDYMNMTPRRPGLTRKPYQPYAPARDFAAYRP

Measured: binding

B1: PV1 (Armenian hamster anti-murine CD28 antibody, hybridoma ATCC HB-12352) (antibody, V domains shown)
VH: QVQLKQSGAELVKPGASVKISCKTSGYTFTDGYMNWVEQKPGQGLEWIGRIDPDSGNTRYNQKFQGKATLTRDKSSSTVYMDLRSLTSEDSAVYYCARDGTFYGTYGYWYFDFWGQGTQVTVSS
VL: DIVMTQSPYSLAVSAGEKVTMSCRSSQSLYYSGIKKNLLAWYQQKPGQSPKLLIYFTSTRLPGVPDRFTGSGSGTDYTLTITSVQAEDMGHYFCQQGISTPLTFGDGTKLEIR
binds: [1] | [2] | [3] | [4]
